Record: PubChem BioAssay AID1259405 (NCATS, 2018)
This is an unselected part of about 50,000 reagents tested. About 4,000 of all reagents (8%) were called active. 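Mouse siRNA library applied to hamster cells; one well for each siRNA.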

- Purpose: 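Silenced genes that increase secreted GFP made by CHO cells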 (primary screen)
- Cells: Chinese hamster CHO-K1 ovary cells with stable secreted eGFP expression
- Knock-down reagent: single siRNA against mouse genes, 0.8 pmol siRNA per well (2 µl of 400 nM stock)
- Time to read-out: 3 days
- Read-out: 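Percent of the per-plate non-targeting control median for intracellular GFP per well by laser scanning cytometry and for cell viability by ATP luminescence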
- Direction: GFP, % of control: higher = more GFP per well, higher productivity; viability (ATP), % of control: higher = more viable cells (more ATP)
- Hit rule: 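Called active when intracellular GFP, relative to negative control, is at or above 120%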

target	PubChem SID	GFP, % of control	viability (ATP), % of control	activity call
Eif4g3 (eukaryotic translation initiation factor 4 gamma, 3)	SID363569635	74.1	101	inactive
Eif4g3 (eukaryotic translation initiation factor 4 gamma, 3)	SID363577379	66.5	52.6	inactive
Eif4g3 (eukaryotic translation initiation factor 4 gamma, 3)	SID363578787	90.2	74.7	inactive
Znrf1 (zinc and ring finger 1)	SID363556754	47.9	70.5	inactive
Znrf1 (zinc and ring finger 1)	SID363563658	91.6	71.1	inactive
Znrf1 (zinc and ring finger 1)	SID363587204	87.5	94	inactive
Zfp654 (zinc finger protein 654)	SID363545495	90.7	69.4	inactive
Zfp654 (zinc finger protein 654)	SID363549008	86.9	73.9	inactive
Zfp654 (zinc finger protein 654)	SID363562814	104	86.2	inactive
Gm5600 (predicted gene 5600)	SID363540418	82	85.9	inactive
Gm5600 (predicted gene 5600)	SID363542170	74.5	69.6	inactive
Gm5600 (predicted gene 5600)	SID363567086	151	74.4	active
Opn1mw	SID363571195	76.4	58.1	inactive
Opn1mw	SID363571547	92.3	73.8	inactive
Opn1mw	SID363571899	92	83.6	inactive
Ppm1d (protein phosphatase 1D magnesium-dependent, delta isoform)	SID363575213	91.4	72.4	inactive
Ppm1d (protein phosphatase 1D magnesium-dependent, delta isoform)	SID363580845	62.2	70.1	inactive
Ppm1d (protein phosphatase 1D magnesium-dependent, delta isoform)	SID363582957	101	95	inactive
Mief2 (mitochondrial elongation factor 2)	SID363555129	34.8	44.1	inactive
Mief2 (mitochondrial elongation factor 2)	SID363568576	105	35.2	inactive
Mief2 (mitochondrial elongation factor 2)	SID363586635	86.1	48.7	inactive
Slc68a1	SID363542352	80.2	106	inactive
Slc68a1	SID363551843	69.6	75	inactive
Slc68a1	SID363559448	91	98.7	inactive
Snap29 (synaptosomal-associated protein 29)	SID363553541	107	52.8	inactive
Snap29 (synaptosomal-associated protein 29)	SID363561498	45.3	56.3	inactive
Snap29 (synaptosomal-associated protein 29)	SID363565236	25.7	32.1	inactive
Sptbn4 (spectrin beta, non-erythrocytic 4)	SID363541538	73.6	66.5	inactive
Sptbn4 (spectrin beta, non-erythrocytic 4)	SID363556165	28.6	46.7	inactive
Sptbn4 (spectrin beta, non-erythrocytic 4)	SID363566454	92	60	inactive
Gm4841 (predicted gene 4841)	SID363540245	61.7	74.7	inactive
Gm4841 (predicted gene 4841)	SID363541997	73.9	48.7	inactive
Gm4841 (predicted gene 4841)	SID363566913	68.8	51.9	inactive
Efnb3 (ephrin B3)	SID363541493	57.8	35.7	inactive
Efnb3 (ephrin B3)	SID363556120	44.5	63.3	inactive
Efnb3 (ephrin B3)	SID363566409	49.6	54.3	inactive
Pcdhb18 (protocadherin beta 18)	SID363573266	85.1	90.3	inactive
Pcdhb18 (protocadherin beta 18)	SID363588505	84	69.7	inactive
Tex22 (testis expressed gene 22)	SID363543593	68.8	45.9	inactive
Tex22 (testis expressed gene 22)	SID363553086	240	80.3	active
Tex22 (testis expressed gene 22)	SID363558934	63.3	80.6	inactive
Cachd1 (cache domain containing 1)	SID363569063	93.2	99.5	inactive
Cachd1 (cache domain containing 1)	SID363583495	83.7	94.1	inactive
Hsp90b1 (heat shock protein 90, beta (Grp94), member 1)	SID363582545	87.7	117	inactive
Hsp90b1 (heat shock protein 90, beta (Grp94), member 1)	SID363584305	76.4	80	inactive
Eomes (eomesodermin)	SID363573401	57	80.6	inactive
Eomes (eomesodermin)	SID363588640	86.6	99.1	inactive
Arpc4 (actin related protein 2/3 complex, subunit 4)	SID363541000	76.9	57.7	inactive
Arpc4 (actin related protein 2/3 complex, subunit 4)	SID363555627	75.3	70.5	inactive
Arpc4 (actin related protein 2/3 complex, subunit 4)	SID363565916	96.6	49.9	inactive
Srcin1 (SRC kinase signaling inhibitor 1)	SID363554632	71	66.5	inactive
Srcin1 (SRC kinase signaling inhibitor 1)	SID363568079	77	63	inactive
Srcin1 (SRC kinase signaling inhibitor 1)	SID363586138	97.5	97.2	inactive
Or8c9 (olfactory receptor family 8 subfamily C member 9)	SID363554414	68.6	79	inactive
Or8c9 (olfactory receptor family 8 subfamily C member 9)	SID363567861	62.1	79.8	inactive
Or8c9 (olfactory receptor family 8 subfamily C member 9)	SID363585218	45.6	84.2	inactive
Ubn1 (ubinuclein 1)	SID363545925	99.8	80.1	inactive
Ubn1 (ubinuclein 1)	SID363549438	67.2	77.4	inactive
Ubn1 (ubinuclein 1)	SID363563244	180	87.4	active
Hsh2d (hematopoietic SH2 domain containing)	SID363540444	57.5	68.6	inactive
Hsh2d (hematopoietic SH2 domain containing)	SID363542196	124	87.2	active
Hsh2d (hematopoietic SH2 domain containing)	SID363567112	63.4	102	inactive
Edn3 (endothelin 3)	SID363541460	93.2	73.8	inactive
Edn3 (endothelin 3)	SID363556087	55.1	74.6	inactive
Edn3 (endothelin 3)	SID363566376	67.7	64.9	inactive
Cpne9 (copine family member IX)	SID363542659	59.8	71.5	inactive
Cpne9 (copine family member IX)	SID363546176	52.2	43.6	inactive
Cpne9 (copine family member IX)	SID363547932	80.8	78	inactive
Rps10 (ribosomal protein S10)	SID363554043	53.4	71.5	inactive
Rps10 (ribosomal protein S10)	SID363562000	90.6	120	inactive
Rps10 (ribosomal protein S10)	SID363565738	91.9	78.2	inactive
Coil (coilin)	SID363550274	67	103	inactive
Coil (coilin)	SID363564783	202	82.9	active
Coil (coilin)	SID363588328	96.3	96.1	inactive
Fer (FER tyrosine kinase)	SID363571026	69.1	62.1	inactive
Cdr2 (cerebellar degeneration-related 2)	SID363546141	68.5	83.3	inactive
Cdr2 (cerebellar degeneration-related 2)	SID363549654	69.7	73.9	inactive
Cdr2 (cerebellar degeneration-related 2)	SID363563460	63.4	52.5	inactive
Il17f (interleukin 17F)	SID363541529	67.2	54.1	inactive
Il17f (interleukin 17F)	SID363556156	60	36.9	inactive
Il17f (interleukin 17F)	SID363566445	82.7	67.6	inactive
Prx (periaxin)	SID363555024	121	126	active
Prx (periaxin)	SID363568471	68.7	66	inactive
Prx (periaxin)	SID363586530	71.9	88.2	inactive

An excerpt taken from the entries so far, for reference:
target	PubChem SID	GFP, % of control	viability (ATP), % of control	activity call
Snap29 (synaptosomal-associated protein 29)	SID363565236	25.7	32.1	inactive
Sptbn4 (spectrin beta, non-erythrocytic 4)	SID363541538	73.6	66.5	inactive
Sptbn4 (spectrin beta, non-erythrocytic 4)	SID363556165	28.6	46.7	inactive
Sptbn4 (spectrin beta, non-erythrocytic 4)	SID363566454	92	60	inactive
Gm4841 (predicted gene 4841)	SID363540245	61.7	74.7	inactive
Gm4841 (predicted gene 4841)	SID363541997	73.9	48.7	inactive
Gm4841 (predicted gene 4841)	SID363566913	68.8	51.9	inactive
Efnb3 (ephrin B3)	SID363541493	57.8	35.7	inactive
Efnb3 (ephrin B3)	SID363556120	44.5	63.3	inactive
